Among the data in PMC10085679 are binding result and Kd values, retold here.

Chains of the proteins cited; added tags and fusions are not shown. A line that says so, or that is headed by a name, gives the form on record, which may keep a tag or linker.
IFI16FL (Homo sapiens), one chain, as listed by the source: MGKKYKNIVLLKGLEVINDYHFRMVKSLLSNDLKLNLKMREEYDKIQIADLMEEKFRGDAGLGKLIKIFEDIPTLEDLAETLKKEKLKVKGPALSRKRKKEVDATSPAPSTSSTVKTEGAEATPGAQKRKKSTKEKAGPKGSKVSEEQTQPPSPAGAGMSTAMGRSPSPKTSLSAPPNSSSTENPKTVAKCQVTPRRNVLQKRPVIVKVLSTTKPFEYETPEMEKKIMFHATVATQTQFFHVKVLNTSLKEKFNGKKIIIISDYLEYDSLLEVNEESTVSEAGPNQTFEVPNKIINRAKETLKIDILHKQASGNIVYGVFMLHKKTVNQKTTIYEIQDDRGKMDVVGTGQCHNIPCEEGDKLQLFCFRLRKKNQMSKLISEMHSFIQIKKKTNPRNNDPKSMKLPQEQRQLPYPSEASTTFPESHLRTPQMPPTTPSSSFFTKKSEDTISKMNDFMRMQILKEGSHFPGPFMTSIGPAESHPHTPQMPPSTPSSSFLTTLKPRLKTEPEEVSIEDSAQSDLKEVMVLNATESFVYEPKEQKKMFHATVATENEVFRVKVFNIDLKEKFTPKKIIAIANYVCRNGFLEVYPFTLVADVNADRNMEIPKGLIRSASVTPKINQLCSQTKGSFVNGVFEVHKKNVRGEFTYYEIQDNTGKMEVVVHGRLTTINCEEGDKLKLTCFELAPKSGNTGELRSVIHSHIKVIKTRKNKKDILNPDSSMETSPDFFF

For part of these data: The comparison behind a weaker result is the experiment's own reference, which may not be listed here. For part of these data: Where a protein sequence is shown, tags need not be part of it. Some results are limits rather than exact numbers.

Series [1] deals with IFI16FL (Homo sapiens). Kind of series: EMSA. To be noted: recombinant protein; residues 1-729; protein details: C-terminal His6; label: FAM; single-stranded DNA. For orientation: Mobility shift assays separate free from complexed probe on a gel.
Series [2] has as its target T1, AIM2FL (Homo sapiens) (UniProt O14862).
T1 sequence (looked up): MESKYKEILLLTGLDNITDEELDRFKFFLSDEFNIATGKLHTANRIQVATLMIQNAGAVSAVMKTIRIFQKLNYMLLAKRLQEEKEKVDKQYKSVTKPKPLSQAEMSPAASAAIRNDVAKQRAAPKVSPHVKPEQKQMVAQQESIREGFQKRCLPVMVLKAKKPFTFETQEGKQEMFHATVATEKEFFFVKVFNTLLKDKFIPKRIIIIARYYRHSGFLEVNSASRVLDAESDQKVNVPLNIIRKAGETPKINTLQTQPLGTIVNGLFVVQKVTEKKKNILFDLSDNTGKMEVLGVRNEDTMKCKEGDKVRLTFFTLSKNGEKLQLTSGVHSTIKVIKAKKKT
Kind of series: fluorescence anisotropy. To be noted: 160 mM KCl, 60 mM KCl for IFI16HinAB, FAM probe 3-6 nM (FA) or 20 nM (EMSA), recombinant protein, residues 1-343, label: FAM.

Series [3] concerns the target T1, AIM2FL (Homo sapiens). As to the kind of experiment: FP. To be noted: 160 mM KCl (60 mM KCl for IFI16HinAB), pH and temperature not given in the available text, recombinant protein, residues 1-343, label: FAM.
In series [4] the target is T1, AIM2FL (Homo sapiens). Kind of series: competition with a labelled probe. To be noted: against 60-bp FAM-dsDNA; recombinant protein; residues 1-343; label: FAM (unlabeled as competitor).
In series [5] the test system is IFI16FL (Homo sapiens). Kind of series: FP. To be noted: 160 mM KCl (60 mM KCl for IFI16HinAB); pH and temperature not given in the available text; recombinant protein; residues 1-729; protein details: C-terminal …; label: FAM (unlabeled as competitor).

For “AAAGAAAGAAAGAAAGAAAGAAAG [24-base ssDNA_A]”, the binding result with IFI16FL (Homo sapiens) [1] and with AIM2FL (Homo sapiens) [3] (single-stranded DNA) was “binds more weakly” each time. For the same sequence, in the series with AIM2FL (Homo sapiens) [2] (single-stranded DNA), the dissociation constant Kd was more than 0.5 µM.

For “AAAGAAAGAAAGAAAGAAAGAAAG [24-base ssRNA_A]”, the binding result with AIM2FL (Homo sapiens) [3] is listed as “binds more weakly”.

Regarding “AAAGAAAGAAAGAAAGAAAGAAAGAAAGAAAGAAAGAAAGAAAGAAAGAAAGAAAGAAAG [60-base ssRNA_A]”, the binding result in the series with AIM2FL (Homo sapiens) [4] was “binds more weakly”.

On to “TAAGACACGATGCGATAAAATCTG / CAGAUUUUAUCGCAUCGUGUCUUA [24-bp DNA:RNA hybrid]”, for which, in the series with AIM2FL (Homo sapiens) [2] (DNA:RNA hybrid), the Kd was more than 0.5 µM. For the same sequence, the binding result in the series with AIM2FL (Homo sapiens) [3] (DNA:RNA hybrid) is “binds more weakly”.

On to “TAAGACACGATGCGATAAAATCTGTTTGTAAAATTTATTAAGGGTACAAATTGCCCTAGC (double strand) [60-bp dsDNA]”, for which, in the series on IFI16FL (Homo sapiens) [5], the binding result is given as “binds”.

Consider “TTTCTTTCTTTCTTTCTTTCTTTC [24-base ssDNA_T]”, for which the binding result in the series with IFI16FL (Homo sapiens) [1] and with AIM2FL (Homo sapiens) [3] (single-stranded DNA) was “binds more weakly” each time.

“UAAGACACGAUGCGAUAAAAUCUG / CAGAUUUUAUCGCAUCGUGUCUUA [24-bp dsRNA]”: the binding result in the series with AIM2FL (Homo sapiens) [3] is reported as “binds more weakly”.

Consider “UUUCUUUCUUUCUUUCUUUCUUUC [24-base ssRNA_U]”, for which the binding result with AIM2FL (Homo sapiens) [3] is recorded as “binds more weakly”.

For orientation: Kd means a measure of binding affinity in units of concentration.
